Measured values from PMC4117788, “Structural dynamics of the two-component response regulator RstA in recognition of promoter DNA element” (Nucleic Acids Research, 2014).
Results are given in words; binding and its absence hold for the method and conditions named.

Molecular target: Klebsiella pneumoniae RstA C-terminal DNA-binding domain (Klebsiella pneumoniae) (UniProt A6T8N1)
Assay: NMR 15N relaxation (overall rotational correlation time); kpRstA DBD free (pH 6) and with DNA-16a (pH 6.5); 20 mM sodium phosphate, 50 mM NaCl, 1 mM EDTA, 1 mM DTT; 800 MHz; both purified

B1: Klebsiella pneumoniae RstA C-terminal DNA-binding domain (domain or fragment, UniProt A6T8N1 131-236)
chain: TLTPHKTISFGSLTIDPVNRQVLLGGENVALSTADFDLLWELATHAGQIMDRDALLKNLRGVTYDGMDRSVDVAISRLRKKLLDNATEPYRIKTVRNKGYLFAPHA
binding: no binding (tested: 0.1–1.0 mM protein samples)
